According to patent publication US20110129508A1 (priority 2008, published 2011):
At least one compound was matched to its structure with a doubt left.

Key:
[1] = tested on: rat model of diabetic neuropathic pain; design: species or system rats; conditions: in vivo
[2] = tested on: streptozotocin-induced diabetic neuropathy model of neuropathic pain; conditions: rat, in vivo, iv, 0.02 mg/kg

## CSCC[C@@H]1NC(=O)[C@H](CC(C)C)NC(=O)[C@H](CCCNC(=N)N)NC(=O)[C@H](CO)NC(=O)[C@@H]2CSSC[C@@H]3NC(=O)[C@H](CO)NC(=O)CNC(=O)[C@H]([C@@H](C)O)NC(=O)[C@H](CSSC[C@H](N)C(=O)N[C@@H](CCCCN)C(=O)NCC(=O)N[C@@H](CCCCN)C(=O)NCC(=O)N[C@@H](C)C(=O)N[C@@H](CCCCN)C(=O)N2)NC(=O)[C@H](CSSC[C@@H](C(N)=O)NC(=O)[C@H](CCCCN)NC(=O)CNC(=O)[C@H](CO)NC(=O)[C@H](CCCNC(=N)N)NC3=O)NC(=O)[C@H](CC(=O)O)NC(=O)[C@H](Cc2ccc(O)cc2)NC1=O [MVIIA, ziconotide]
[1]
  reversal of hyperalgesia: 0.4%
[2]
  analgesic effect (FIG. 1): no analgesic effect

## CCOC(=O)Nc1ccc(NCc2ccc(F)cc2)nc1N [flupirtine]
[1]
  antinociceptive effect: ineffective when given alone
